Results reported in patent US20120077964A1 (Merck Sharp & Dohme, published 2012).
Results are given in words; binding and its absence hold for the method and conditions named. Some entries that bind do so weakly or less than the wild type.

Protein sequences, listed by entry. Tags and fused reporters are not part of them. Residues count along the entry.
UniProt Q8NBP7, residues 31-692: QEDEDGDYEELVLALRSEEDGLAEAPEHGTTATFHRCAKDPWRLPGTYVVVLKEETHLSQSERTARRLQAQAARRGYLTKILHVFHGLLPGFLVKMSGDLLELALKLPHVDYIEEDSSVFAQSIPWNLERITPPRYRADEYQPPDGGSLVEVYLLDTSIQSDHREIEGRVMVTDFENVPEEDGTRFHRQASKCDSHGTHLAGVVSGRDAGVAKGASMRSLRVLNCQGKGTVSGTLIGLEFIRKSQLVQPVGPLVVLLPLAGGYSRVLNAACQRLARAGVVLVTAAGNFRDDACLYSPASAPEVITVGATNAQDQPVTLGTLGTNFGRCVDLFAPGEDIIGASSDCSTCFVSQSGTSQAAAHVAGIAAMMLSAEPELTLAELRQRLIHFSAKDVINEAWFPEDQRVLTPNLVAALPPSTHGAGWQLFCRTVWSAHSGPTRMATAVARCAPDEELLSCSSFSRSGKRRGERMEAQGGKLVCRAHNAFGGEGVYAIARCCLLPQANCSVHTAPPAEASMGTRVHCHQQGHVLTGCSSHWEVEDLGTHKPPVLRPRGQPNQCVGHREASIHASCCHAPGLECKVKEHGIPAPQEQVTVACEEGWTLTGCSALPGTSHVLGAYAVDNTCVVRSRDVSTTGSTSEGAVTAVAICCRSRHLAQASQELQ

Target: recombinant human PCSK9, V5-, His-tagged (human, UniProt Q8NBP7 31-692, limits assumed)
Assay: ELISA, immobilized V5-, His-tagged PCSK9, HRP anti-Fab detection

Row | Binder | binding
1 | 1CX1G08 Fab (Fab, V domains shown) VH: QVQLVESGGGLVQPGGSLRLSCAASGFTFSDYWVSWVRQAPGKGLEWVSFISYDGSSTYYADSVKGRFTISRDNSKNTLYLQMNSLRAEDTAVYYCARTYFEGVDVWGQGTLVTVSS VL: DIELTQPPSVSVAPGQTARISCSGDNIGTYYVHWYQQKPGQAPVLVIYDDSNRPSGIPERFSGSNSGNTATLTISGTQAEDEADYYCGTWDNTSFNLVFGGGTKLTVLG | binds
2 | 3CX3D02 Fab (Fab, V domains shown) VH: QVQLVQSGAEVKKPGESLKISCKGSGYSFTNSWIGWVRQMPGKGLEWMGIIYPSDSYTIYSPSFQGQVTISADKSISTAYLQWSSLKASDTAMYYCARGGGYYYALMDVWAQGTLVTVSS VL: DIQMTQSPSSLSASVGDRVTITCRASQTISTWLNWYQQKPGKAPKLLIYAASSLQSGVPSRFSGSGSGTDFTLTISSLQPEDFATYYCLQDSSLPLTFGQGTKVEIKR | binds

Now from value to binder:

Row | binding | Binder
3 | binds | 3CX4B08 Fab (Fab, V domains shown) VH: QVQLVESGGGLVQPGGSLRLSCAASGFTFSNYTMNWVRQAPGKGLEWVSFISSSSSETYYADSVKGRFTISRDNSKNTLYLQMNSLRAEDTAVYYCARGYGDMVDLWGQGTLVTVSS VL: DIELTQPPSVSVAPGQTARISCSGDSIPTYYVAWYQQKPGQAPVLVIYSDTDRPSGIPERFSGSNSGNTATLTISGTQAEDEADYYCQSFDNHGYHVFGGGTKLTVLG
4 | binds | 3BX5C01 Fab (Fab, V domains shown) VH: QVQLVQSGAEVKKPGESLKISCKGSGYSFTSYGISWVRQMPGKGLEWMGMIDPSDSFTTYSPSFQGQVTISADKSISTAYLQWSSLKASDTAMYYCARGYYFTYALQPMDHWGQGTLVTVSS VL: DIELTQPPSVSVAPGQTARISCSGDNLRDYIVHWYQQKPGQAPVLVIYDDSNRPSGIPERFSGSNSGNTATLTISGTQAEDEADYYCGFDNGGDIDVFGGGTKLTVLG
5 | binds | 3CX2A06 Fab (Fab, V domains shown) VH: QVQLVQSGAEVKKPGESLKISCKGSGYSFSNFWIAWVRQMPGKGLEWMGIIDPSDSWTRYSPSFQGQVTISADKSISTAYLQWSSLKASDTAMYYCARGDGQDFDNWGQGTLVTVSS VL: DIQMTQSPSSLSASVGDRVTITCRASQNINSYLNWYQQKPGKAPKLLIYAASSLQSGVPSRFSGSGSGTDFTLTISSLQPEDFAVYYCLQNYDLPNTFGQGTKVEIKR
